Experimental data from the supplement of paper PMC7830784.
Counter-ions that a name gives are not always drawn. The list shows a part of the results. Repeats in this data set agree poorly, so a single value says little.

Each molecule was assayed on Brugia pahangi adult female (assay: motility inhibition on day 3 relative to DMSO vehicle; higher = more active). Conditions: 10 µM; 3 days.
For `CC(C)(C)NC[C@H](O)COc1nsnc1N1CCOCC1` [timolol maleate], the “motility inhibition on day 3” value was 22.2%. In the case of `CC(C)(C)NC[C@H](O)COc1nsnc1N1CCOCC1` [S(-)-Timolol maleate], the “motility inhibition on day 3” value is reported as 9.16%. `C[C@]12CCC(=O)C=C1CC[C@@H]1[C@@H]2[C@@H](O)C[C@@]2(C)[C@H]1CC[C@]2(O)C(=O)COC(=O)CCC(=O)O` [hydrocortisone hemisuccinate] was tested, and the “motility inhibition on day 3” value was 31.9%. In the case of `O=C(Nc1cccc2c(=O)cc(-c3nnn[nH]3)oc12)c1ccc(OCCCCc2ccccc2)cc1` [Pranlukast], the “motility inhibition on day 3” value is reported as under 0%. For `NCCCC[C@H](N[C@@H](CCc1ccccc1)C(=O)O)C(=O)N1CCC[C@H]1C(=O)O` [lisinopril], the “motility inhibition on day 3” value was 23.4%. With `CO/N=C(\C(=O)N[C@@H]1C(=O)N2C(C(=O)O)=C(CSc3nc(=O)c(O)nn3C)CS[C@H]12)c1csc(N)n1` [ceftriaxone sodium trihydrate] the “motility inhibition on day 3” value was 5.82%. For `CO/N=C(\C(=O)N[C@@H]1C(=O)N2C(C(=O)O)=C(CSc3nc(=O)c(O)nn3C)CS[C@H]12)c1csc(N)n1` [Ceftriaxone Disodium Salt Hemiheptahydrate], the “motility inhibition on day 3” value was 22.9%. With `CCOC(=O)OC(C)OC(=O)[C@@H]1N2C(=O)[C@@H](NC(=O)[C@H](N)c3ccccc3)[C@H]2SC1(C)C` (stereo not given in full) [bacampicillin hydrochloride] the “motility inhibition on day 3” value was 11.4%. `COC1=C(OC)C(=O)C(CCCCCCCCCCO)=C(C)C1=O` [idebenone] was tested, and the “motility inhibition on day 3” value was 13.6%. `CCOC(=O)[C@H](CCc1ccccc1)N[C@H]1CCc2ccccc2N(CC(=O)O)C1=O` [benazepril hydrochloride] was tested, and the “motility inhibition on day 3” value was under 0%. `Cc1cc(=O)oc2cc(O)ccc12` [hymechrome] was tested, and the “motility inhibition on day 3” value was under 0%. With `Cc1nc2ccccc2n1Cc1ccc(Cl)cc1` [chlormidazole] the “motility inhibition on day 3” value was 66.6%. `O=C(NCc1ccccc1)OCCO` [buramate] was tested, and the “motility inhibition on day 3” value was 10.1%. In the case of `CCCN[C@H]1CCc2nc(N)sc2C1` [Pramipexole], the “motility inhibition on day 3” value is reported as 5.4%. For `CCOc1ccc(/C=C2\NCCc3cc(OCC)c(OCC)cc32)cc1OCC` [Drotaverine], the “motility inhibition on day 3” value was under 0%. In the case of `CC(=O)c1ccc(S(=O)(=O)NC(=O)NC2CCCCC2)cc1` [Acetohexamide], the “motility inhibition on day 3” value is reported as 16.1%. `CCCCC[C@H](O)/C=C/[C@@H]1[C@@H](C/C=C\CCCC(=O)O)[C@@H](O)C[C@H]1O` [Dinoprost] was tested, and the “motility inhibition on day 3” value was under 0%. `CCCNC(C)C(=O)Nc1ccccc1C` (stereo not given) [prilocaine hydrochloride] was tested, and the “motility inhibition on day 3” value was 30.3%. With `COc1ccc(CN(CCN(C)C)c2ccccn2)cc1` [Pyrilamine maleate] the “motility inhibition on day 3” value was 27.2%. For `Nc1ncn([C@@H]2O[C@H](CO)[C@@H](O)[C@H]2O)c(=O)n1` [5-azacytidine], the “motility inhibition on day 3” value was under 0%. For `CC(COc1ccccc1)N(CCCl)Cc1ccccc1` (stereo not given) [Phenoxybenzamine hydrochloride], the “motility inhibition on day 3” value was 7.63%. `Cc1scc2c1N(C(=O)CN1CCN(C)CC1)c1ccccc1NC2=O` [Telenzepine dihydrochloride] was tested, and the “motility inhibition on day 3” value was 12.2%. `c1ccc(C2CN3CCSC3=N2)cc1` (stereo not given) [tetramizole hydrochloride] was tested, and the “motility inhibition on day 3” value was under 0%. `C=C1c2cccc(O)c2C(=O)C2=C(O)[C@]3(O)C(=O)C(C(N)=O)=C(O)[C@@H](N(C)C)[C@@H]3[C@@H](O)[C@H]12` [methacycline hydrochloride] was tested, and the “motility inhibition on day 3” value was under 0%. With `CC[C@]1(O)C[C@@H]2CN(CCc3c([nH]c4ccccc34)[C@@](C(=O)OC)(c3cc4c(cc3OC)N(C)[C@H]3[C@@](O)(C(N)=O)[C@H](O)[C@]5(CC)C=CCN6CC[C@]43[C@@H]65)C2)C1` the “motility inhibition on day 3” value was under 0%. `CO[C@@]12[C@H](COC(N)=O)C3=C(C(=O)C(C)=C(N)C3=O)N1C[C@@H]1N[C@@H]12` [mitomycin c] was tested, and the “motility inhibition on day 3” value was 10%. In the case of `CC(C(=O)O)c1ccc(N2Cc3ccccc3C2=O)cc1` (stereo not given) [indoprofen], the “motility inhibition on day 3” value is reported as 25%. `CC1=Nc2ccc(Cl)cc2S(=O)(=O)N1` [Diazoxide] was tested, and the “motility inhibition on day 3” value was 11.8%. For `C=C1/C(=C\C=C2/CCC[C@]3(C)[C@@H]([C@H](C)/C=C/[C@@H](O)C4CC4)CC[C@@H]23)C[C@@H](O)C[C@@H]1O` [Calcipotriene], the “motility inhibition on day 3” value was 0.648%. With `Cc1ccc(Cl)c(Nc2ccccc2C(=O)O)c1Cl` [sodium meclofenamate] the “motility inhibition on day 3” value was 5.37%. For `CN(C)CCOc1ccc(/C(=C(/CCCl)c2ccccc2)c2ccccc2)cc1` [toremiphene citrate], the “motility inhibition on day 3” value was under 0%. With `CCN1CCN(C(=O)N[C@@H](C(=O)N[C@@H]2C(=O)N3C(C(=O)O)=C(CSc4nnnn4C)CS[C@H]23)c2ccc(O)cc2)C(=O)C1=O` [Cefoperazone sodium salt] the “motility inhibition on day 3” value was 19.3%. For `C[C@H]1C[C@H]2[C@@H]3CCC4=CC(=O)C=C[C@]4(C)[C@@]3(F)[C@@H](O)C[C@]2(C)[C@@]1(O)C(=O)CO` [betamethasone], the “motility inhibition on day 3” value was 39.8%. For `Oc1ccc(OCc2ccccc2)cc1` [monobenzone], the “motility inhibition on day 3” value was 12.6%. `CC(C)(Oc1ccc(C(=O)c2ccc(Cl)cc2)cc1)C(=O)O` [fenofibric acid] was tested, and the “motility inhibition on day 3” value was 7.42%. `CCCCNc1ccc(C(=O)OCCOCCOCCOCCOCCOCCOCCOCCOCCOC)cc1` [benzonatate] was tested, and the “motility inhibition on day 3” value was 0.878%. With `CCn1nc(C(=O)O)c(=O)c2cc3c(cc21)OCO3` [cinoxacin] the “motility inhibition on day 3” value was 0.11%. `Cc1cc(/C=C/c2ccc3cc(N(C)C)ccc3[n+]2C)c(C)n1-c1ccccc1` [pyrvinium pamoate] was tested, and the “motility inhibition on day 3” value was 95.8%. With `CC1(C)O[C@@H]2C[C@H]3[C@@H]4CCC5=CC(=O)C=C[C@]5(C)[C@@]4(F)[C@@H](O)C[C@]3(C)[C@]2(C(=O)CO)O1` [triamcinolone acetonide] the “motility inhibition on day 3” value was under 0%. For `Cc1cnc(NC(=O)C2=C(O)c3ccccc3S(=O)(=O)N2C)s1` [meloxicam], the “motility inhibition on day 3” value was under 0%. In the case of `O=C(O)CCCc1ccccc1` [phenylbutyric acid], the “motility inhibition on day 3” value is reported as under 0%. In the case of `O=C(O)COC(=O)Cc1ccccc1Nc1c(Cl)cccc1Cl` [aceclofenac], the “motility inhibition on day 3” value is reported as 23.4%. With `C[C@@H]1C[C@H]2[C@@H]3CCC4=CC(=O)C=C[C@]4(C)[C@@]3(F)[C@@H](O)C[C@]2(C)[C@@]1(O)C(=O)CO` [dexamethasone] the “motility inhibition on day 3” value was 2.39%. `OC1(c2ccc(Cl)c(C(F)(F)F)c2)CCN(CCCC(c2ccc(F)cc2)c2ccc(F)cc2)CC1` [penfluridol] was tested, and the “motility inhibition on day 3” value was 16.9%. With `CCN1CCC[C@H]1CNC(=O)c1c(OC)ccc(Br)c1OC` [Remoxipride] the “motility inhibition on day 3” value was under 0%.
